Reference: patent publication US10260060B2, “Genetically modified phenylpyruvate decarboxylase, processes to prepare, and uses thereof” (Dow Global Technologies LLC, priority 2014, dated 2019)
At least one structure is not confirmed: it was looked up by name or label, or the drawing left a doubt.

Target: T1, Azospirillum brasilense phenylpyruvate decarboxylase (AbPPDC) variant Q536L, SEQ ID 36 (Azospirillum brasilense, UniProt P51852, Q536L)
T1 construct: made in house; host or cells: E. coli BL21(DE3)
T1 sequence (P51852 1-545 Q536L): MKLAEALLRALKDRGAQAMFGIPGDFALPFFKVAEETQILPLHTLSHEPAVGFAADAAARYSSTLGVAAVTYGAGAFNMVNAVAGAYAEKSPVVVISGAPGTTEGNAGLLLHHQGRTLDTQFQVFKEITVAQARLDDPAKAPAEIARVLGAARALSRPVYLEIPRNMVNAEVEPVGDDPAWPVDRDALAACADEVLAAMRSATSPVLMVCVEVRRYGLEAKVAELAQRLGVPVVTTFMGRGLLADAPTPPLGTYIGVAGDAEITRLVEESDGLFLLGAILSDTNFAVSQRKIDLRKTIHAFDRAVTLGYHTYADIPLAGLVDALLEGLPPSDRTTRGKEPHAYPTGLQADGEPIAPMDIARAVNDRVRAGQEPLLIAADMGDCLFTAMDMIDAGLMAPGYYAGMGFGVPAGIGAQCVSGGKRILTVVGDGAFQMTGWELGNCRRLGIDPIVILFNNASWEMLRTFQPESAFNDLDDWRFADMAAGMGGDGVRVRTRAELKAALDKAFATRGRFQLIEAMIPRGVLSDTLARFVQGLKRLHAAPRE
Experiment: HTP AbPPDC coupled enzyme assay (ADH6/NADPH), 2-ketoacid decarboxylation kinetics, Q536L
Type: biochemical
Conditions: 2-KN over 2-KO
Protocol: The evaluation of the AbPPDC variants is performed in two steps using the high-throughput enzyme assay described hereinbelow. Initially, all the variants are tested for activity against a single high concentration (2 mM) of 2-KH and 2-KN (as shown in Table 1). Following the initial evaluation, detailed kinetic analysis is performed on a select number of variants to determine the maximal rate (kcat), substrate concentration yielding half maximal rate (K0.5, equivalent of KM for enzymes following Michaelis-Menten kinetics), and the catalytic efficiency of the enzyme (kcat/K0.5) against 2-KO and 2-KN (as shown in Table 2). AbPPDC variants, having higher specificity (higher kcat/K0.5) for 2-KN, will be efficient in producing octanal and chemicals derived from it inside the cells.
To evaluate the substrate specificity of the wild type AbPPDC and its variants listed in Table 1, genes of all the proteins are expressed in E. coli cells separately and the protein products are isolated from the cells. […]
A high-throughput AbPPDC coupled enzyme assay is developed for evaluating the substrate specificity of AbPPDC variants. […] The initial velocities of the AbPPDC catalyzed reactions are determined from the rates of oxidation of reduced nicotinamide adenine dinucleotide phosphate (NADPH) occurring during the ADH6 catalyzed reduction of aldehyde. […]

**Q.** With `CCCCCCCC(=O)C(=O)O` [2-KN, 2-ketononanoate] as the compound, how does the “Spec (specificity: ratio of kcat/K0.5 for 2-KN to that for 2-KO)” value read?
**A.** Its value is 2.7.
